By EC50 is commonly meant the concentration giving half of the maximal effect.

Here are results for one compound from publication PMC7236970 (Clinical Epigenetics, 2020).

One test relates to Acetyl α-tubulin. In words: Western blot of α-tubulin acetylation in K-562 cells. It counts as cell-based. The settings on record: Homo sapiens, K562, 24 h, western blot quantification, read-out: EC50 half-maximal acetylation of α-tubulin. As to the method:
(§1) Cells were lyzed in 10% (v/v) Mammalian Protein Extraction Reagent solution (MPER®; Thermofisher, Erembodegen, Belgium) supplemented with 1× protease inhibitor cocktail (Complete EDTA-free, Roche) according to the manufacturer’s instructions. Histone enrichment was performed in acidic conditions as previously described. The protein concentration was determined using the Bradford assay (BioRad).

The subject of another test is Acetyl histone H4. In words: Western blot of histone H4 acetylation in K-562 cells. To be noted: Homo sapiens, K562, 24 h, western blot quantification, read-out: EC50 half-maximal acetylation of histone H4. It counts as cell-based. On the procedure: as §1
(In general: A western blot detects proteins with antibodies after separation by electrophoresis.)

Structures are written as SMILES.

`O=C(CCCCCCC(=O)Nc1ccccc1)NO` [SAHA, suberoylanilide hydroxamic acid, reference compound]: the EC50 was determined as 1.9 ± 0.8 µM in the test on Acetyl α-tubulin and 2.6 ± 0.2 µM in the test with Acetyl histone H4.
